PubChem BioAssay AID1625 (Sanford-Burnham Center for Chemical Genomics, 2009)
The other results are listed elsewhere or left out. Some tests of the compounds listed are not included; inactive here does not mean inactive elsewhere.

Assay: up-regulation of insulin promoter-GFP reporter – imaging, high-content screening, mouse beta cells (AID 1625);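 also: total cells summed across four imaged fields per well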
Conditions: MIN6 insulin promoter-GFP reporter, measured here: cytotoxicity, nuclei count, at 5 µM

SMILES | cell count [cells]
CCN(CC)CC(C)C(C)OC(=O)C(O)(c1ccccc1)c1ccccc1 (stereo not given) | 1080
CC(C)N1C(=O)CC2(CCN(CCOC(=O)C(O)(c3ccccc3)c3ccccc3)CC2)C1=O | 1590
CCN1CCCC(OC(=O)C2(O)c3ccccc3C=Cc3ccccc32)C1 (stereo not given) | 1350
C=CCN1CCN(CCOC(=O)C(O)(c2ccccc2)c2ccccc2)CC1 | 1430
CN(C)C1CCCC1OC(=O)C(O)(c1ccccc1)c1ccccc1 (stereo not given) | 1120
Cc1ccccc1C(=O)NCC1(N2CCCCC2)CCCCC1 | 1470
COc1cccc(C(=O)NCC2(N3CCCCC3)CCCCC2)c1 | 1350
CN(C)c1cccc(C(=O)NCC2(N(C)C)CCCCC2)c1 | 1120
COc1ccc(Br)c(C(=O)NCC2(N3CCCCC3)CCCCC2)c1 | 1300
O=C(OC1CN2CCC1CC2)C(CO)(c1ccccc1)c1ccccc1 (stereo not given) | 1130
